Laboratory results taken from PubChem BioAssay AID662 (National Center for Advancing Translational Sciences (NCATS), 2007).
This is one part of the list. Further columns of the screen follow, without active or inactive calls. The list favours compounds with an active or inconclusive main result. Words in brackets tell the shape of the fitted curve; partial curves, single points and poor fits give uncertain potencies.

Experiment: Cell signaling CRE-BLA (Fsk stim)
Conditions: CHO CRE-bla reporter (cAMP response element driving beta-lactamase), forskolin EC10, beta-lactamase ratio; measured here: 460 nm blue channel
Method in brief: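 Forskolin analogue NKH 477 at EC10 stimulated CRE-driven beta-lactamase in CHO cells alongside compound dilution series. Beta-lactamase was measured with CCF4, excitation 405 nm, emission ratio 460/530 nm.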
In the case of `Cc1noc(NS(=O)(=O)c2ccc(NC(=O)c3cnc4scc(C)n4c3=O)cc2)c1C`, the AC50 is reported as 15.8 µM [rising, single point]. For `COc1ccccc1C(=O)NCCc1nc2ccccc2n1C`, the AC50 was 10 µM [rising, partial curve]. With `COc1ccc2oc(=O)c(NC(=O)C3CCCCC3)cc2c1` the AC50 was 2 µM [rising, single point]. With `O=c1[nH]c2ccc(S(=O)(=O)N3CCN(C4CCCCC4)CC3)cc2[nH]c1=O` the AC50 was 0.251 µM [rising, full curve]. For `Cc1cc(NC(=O)C2CCCCC2)nc2c1c(=O)oc1ccccc12`, the AC50 was 25.1 µM [rising, single point]. With `COc1ccccc1OCCC(=O)OCC(=O)NC(=O)NC(C)(C)C` the AC50 was 0.00398 µM [falling, full curve, poor fit]. In the case of `CCN(CC)S(=O)(=O)c1cc(C(=O)NC2CCCCC2)ccc1C`, the AC50 is reported as 0.398 µM [rising, full curve, poor fit]. For `COc1ccc(CCNC(=O)CSc2nc(-c3ccco3)cc(C(F)(F)F)n2)cc1OC`, the AC50 was 15.8 µM [rising, single point]. For `COc1cc2c(C(=O)NCCCOC(C)C)cn(CC(C)C)c(=O)c2cc1OC`, the AC50 was 10 µM [rising, partial curve]. With `Cc1nc(SCC(=O)NCc2ccco2)c2c3c(sc2n1)CCCC3` the AC50 was 6.31 µM [rising, partial curve]. In the case of `CC(C)c1nc2oc3c(NCc4ccccn4)ncnc3c2c2c1COC(C)(C)C2`, the AC50 is reported as 10 µM [rising, partial curve]. For `CCCC(=O)NCCc1cc2c(C)ccc(C)c2[nH]c1=O`, the AC50 was 10 µM [rising, partial curve]. For `CC(=O)Nc1ccc(C2(O)COc3ccccc3O2)cc1` (stereo not drawn), the AC50 was 0.501 µM [falling, full curve]. With `COc1nc(-c2ccccc2)ccc1-c1noc(C)n1` the AC50 was 12.6 µM [rising, partial curve]. For `CCCCNC(=O)C1CCCN(S(=O)(=O)c2ccc(-n3cnnn3)cc2)C1` (stereo not drawn), the AC50 was 0.126 µM [falling, single point]. For `CCCOP(=O)(c1ccc(N(C)C)cc1)C(O)c1cc(OC)c(OC)c(OC)c1` (stereo not drawn), the AC50 was 2 µM [falling, full curve]. For `COCCn1c(=O)c(-c2ccc(F)cc2)nc2cnc(Oc3cccc(Cl)c3)nc21`, the AC50 was 25.1 µM [rising, single point]. In the case of `Cc1csc2ncc(C(=O)NCc3ccccc3Cl)c(=O)n12`, the AC50 is reported as 7.94 µM [rising, partial curve]. With `N#Cc1c(N)nc2c(c1N)CC(=O)N2c1ccccc1-c1ccccc1` the AC50 was 12.6 µM [rising, single point]. For `O=C(CCCCCn1c(SCc2ccncc2)nc2ccccc2c1=O)NCc1ccco1`, the AC50 was 20 µM [rising, single point]. In the case of `O=c1c(CCc2ccccc2)nc2cnc(N3CCNCC3)nc2n1-c1ccccc1`, the AC50 is reported as 12.6 µM [rising, partial curve]. For `COc1ccccc1NC(=O)COC(=O)CNC(=O)c1ccc(OC)c(OC)c1`, the AC50 was 10 µM [rising, single point]. For `CC(=O)N(Cc1cc2ccc(C)c(C)c2n2nnnc12)C1CCCC1`, the AC50 was 2.51 µM [rising, partial curve]. For `COc1ccc2cc3cc(C(=O)NCc4ccc5c(c4)OCO5)oc3nc2c1`, the AC50 was 0.0794 µM [rising, full curve, poor fit]. With `O=C(NCc1cccs1)c1nc2c(nnn2Cc2ccccc2Cl)c(=O)[nH]1` the AC50 was 25.1 µM [rising, single point]. With `Cn1c(=O)c2c(ncn2CC(O)CNc2ccc(Cl)cc2)n(C)c1=O` (stereo not drawn) the AC50 was 10 µM [rising, single point]. For `O=C(COC(=O)c1ccccc1F)c1ccc(-n2nncc2-c2ccco2)cc1`, the AC50 was 12.6 µM [rising, single point]. In the case of `CCCCCCOC(=O)C(C#N)c1nc2ccccc2nc1N1CCN(C)CC1` (stereo not drawn), the AC50 is reported as 25.1 µM [rising, single point]. In the case of `COc1cccc(-n2c(SCC(=O)NC3CCCCC3)nc3n[nH]c(C)c3c2=N)c1`, the AC50 is reported as 7.94 µM [rising, partial curve]. For `COc1cc2cc(CN(Cc3nnnn3Cc3ccccc3)CC3CCCO3)c(=O)[nH]c2cc1OC` (stereo not drawn), the AC50 was 12.6 µM [rising, single point]. With `CCOC(=O)N1CCC(Nc2cccc(SC)c2)CC1` the AC50 was 20 µM [falling, single point]. With `CCN1CCCC1CNc1ncnc2c1[nH]c1ccc(F)cc12` (stereo not drawn) the AC50 was 25.1 µM [rising, single point]. For `CC(=O)Nc1ccc(C(=O)OCCC(C)C)cc1`, the AC50 was 1.58 µM [rising, partial curve]. For `COc1c(Cl)cc(Cl)cc1/C=N/n1cnnc1`, the AC50 was 0.0126 µM [rising, full curve]. In the case of `COC(=O)C(C)Oc1ccc2c3c(c(=O)oc2c1)CCCCC3` (stereo not drawn), the AC50 is reported as 25.1 µM [rising, single point]. With `CCOC(=O)CSc1nc(N)c(C#N)c(CC(C)C)c1C#N` the AC50 was 12.6 µM [rising, single point]. In the case of `O=S(=O)(Nc1nc2ccccc2nc1NCc1ccco1)c1ccccc1`, the AC50 is reported as 5.01 µM [falling, full curve, poor fit]. In the case of `O=C(Nc1ncnc2c1CCC2)C12CC3CC(CC(C3)C1)C2`, the AC50 is reported as 25.1 µM [rising, single point]. With `Cc1cc(NS(=O)(=O)c2ccc(NC(=O)c3ccoc3C)cc2)nc(C)n1` the AC50 was 2.51 µM [falling, single point]. For `CCNc1ncc2nc(-c3ccc(OC)cc3)c(=O)n(-c3ccc(OC)cc3)c2n1`, the AC50 was 3.98 µM [rising, partial curve]. With `c1cncc(-c2cncnc2NC2CCNCC2)c1` the AC50 was 5.01 µM [rising, single point]. In the case of `O=C(c1cccc2c1-c1ccccc1/C2=N/O)N1CCCCC1`, the AC50 is reported as 7.94 µM [falling, partial curve]. For `Cc1cc(NC(=O)CSc2cn(CCNC(=O)c3ccc(Cl)cc3)c3ccccc23)no1`, the AC50 was 7.94 µM [rising, partial curve]. In the case of `CCN(CC)C(=O)COc1ccc2oc(C)c(C(=O)OC(C)C)c2c1`, the AC50 is reported as 12.6 µM [rising, partial curve]. With `N=c1c2c3c(sc2ncn1CCN1CCOCC1)CCCCC3` the AC50 was 15.8 µM [rising, single point]. For `O=C(O)c1ccccc1-c1ccccc1C(=O)Nc1ccc2c(c1)[nH]c(=O)c1ccccc12`, the AC50 was 0.1 µM [rising, full curve, poor fit]. For `O=C(C1CCCN(S(=O)(=O)c2cccc3nsnc23)C1)N1CCN(c2ccccn2)CC1` (stereo not drawn), the AC50 was 31.6 µM [falling, partial curve]. For `CCOC(=O)c1[nH]c(=O)[nH]c1COC(=O)c1cc2ccccc2o1`, the AC50 was 0.398 µM [rising, partial curve]. For `C=CCc1ccc(OCC(O)CN2CCCCC2)c(OC)c1` (stereo not drawn), the AC50 was 15.8 µM [rising, single point]. With `COc1ccc(-n2c(=O)c(-c3cccs3)nc3cnc(N(C)C)nc32)cc1` the AC50 was 12.6 µM [rising, single point]. With `COc1ccc(Oc2ncc3ncc(=O)n(Cc4ccc(F)cc4)c3n2)cc1` the AC50 was 20 µM [rising, single point]. In the case of `CCOc1ccc(NC2=NC(C(=O)NCc3ccccc3)CC(=O)N2)cc1` (stereo not drawn), the AC50 is reported as 0.02 µM [rising, full curve, poor fit]. For `O=C(Nc1cccc(-c2cn3ccccc3n2)c1)c1cnccn1`, the AC50 was 2 µM [rising, full curve]. In the case of `CC(=O)Oc1c(C)cc(O)c2ccccc12`, the AC50 is reported as 10 µM [falling, partial curve]. With `CN1CC(=O)N(CCOc2ccccc2)C1=O` the AC50 was 0.2 µM [falling, full curve, poor fit]. With `Clc1cccc(-c2cc3nc4c(c(N5CCOCC5)n3n2)CCCC4)c1` the AC50 was 3.98 µM [rising, single point]. In the case of `COc1ccc(N2CCN(C(=O)c3ccc4c(=O)n(CC5CCCO5)c(=O)[nH]c4c3)CC2)cc1` (stereo not drawn), the AC50 is reported as 0.00316 µM [falling, full curve, poor fit]. With `CC12CCC(C(=O)Nc3cccnc3)(CC1=O)C2(C)C` (stereo not drawn) the AC50 was 0.00398 µM [falling, full curve]. With `CN1C(=O)c2ccccc2C(C(=O)O)C1c1cn(C)c2ccccc12` (stereo not drawn) the AC50 was 0.251 µM [falling, full curve, poor fit]. With `COC(=O)c1ccc(CSc2nc3scc(-c4cccs4)c3c(=O)[nH]2)o1` the AC50 was 12.6 µM [rising, partial curve]. In the case of `CCNc1ncc2nc(CCc3ccccc3)c(=O)n(C)c2n1`, the AC50 is reported as 10 µM [rising, partial curve]. With `CC(C)NC(=O)CN(c1cccc(Br)c1)S(C)(=O)=O` the AC50 was 25.1 µM [falling, single point]. In the case of `Cc1c(CNCc2cccs2)c(C(=O)O)c(C)n1Cc1ccccc1`, the AC50 is reported as 0.0501 µM [falling, partial curve]. In the case of `CCCC(=O)c1c(NC(C)C)cc(C)oc1=O`, the AC50 is reported as 6.31 µM [rising, partial curve]. In the case of `Cc1ccc(C(=O)Nc2nc3ccc(S(C)(=O)=O)cc3s2)s1`, the AC50 is reported as 12.6 µM [rising, partial curve]. In the case of `CC1=C(C(=O)OCc2ccccc2)C(c2ccc([N+](=O)[O-])cc2)NC(=O)N1CCCCCC(=O)O` (stereo not drawn), the AC50 is reported as 10 µM [rising, partial curve]. With `O=C(NC1CC1)c1ccc(S(=O)(=O)NC2CCCCCC2)cc1` the AC50 was 12.6 µM [rising, partial curve]. In the case of `Cc1cc(C(=O)CN(Cc2ccc(F)cc2)S(=O)(=O)c2ccc3c(c2)OCCO3)c(C)n1C`, the AC50 is reported as 25.1 µM [falling, single point].
